In article PMC10776562 one finds binding data, which are given here for one substance.

In this test the target is T1, SH3 domain containing ring finger 2 (SH3RF2) (human (endogenous in A2780/DDP and SKOV3/DDP)) (UniProt Q8TEC5).
T1 sequence: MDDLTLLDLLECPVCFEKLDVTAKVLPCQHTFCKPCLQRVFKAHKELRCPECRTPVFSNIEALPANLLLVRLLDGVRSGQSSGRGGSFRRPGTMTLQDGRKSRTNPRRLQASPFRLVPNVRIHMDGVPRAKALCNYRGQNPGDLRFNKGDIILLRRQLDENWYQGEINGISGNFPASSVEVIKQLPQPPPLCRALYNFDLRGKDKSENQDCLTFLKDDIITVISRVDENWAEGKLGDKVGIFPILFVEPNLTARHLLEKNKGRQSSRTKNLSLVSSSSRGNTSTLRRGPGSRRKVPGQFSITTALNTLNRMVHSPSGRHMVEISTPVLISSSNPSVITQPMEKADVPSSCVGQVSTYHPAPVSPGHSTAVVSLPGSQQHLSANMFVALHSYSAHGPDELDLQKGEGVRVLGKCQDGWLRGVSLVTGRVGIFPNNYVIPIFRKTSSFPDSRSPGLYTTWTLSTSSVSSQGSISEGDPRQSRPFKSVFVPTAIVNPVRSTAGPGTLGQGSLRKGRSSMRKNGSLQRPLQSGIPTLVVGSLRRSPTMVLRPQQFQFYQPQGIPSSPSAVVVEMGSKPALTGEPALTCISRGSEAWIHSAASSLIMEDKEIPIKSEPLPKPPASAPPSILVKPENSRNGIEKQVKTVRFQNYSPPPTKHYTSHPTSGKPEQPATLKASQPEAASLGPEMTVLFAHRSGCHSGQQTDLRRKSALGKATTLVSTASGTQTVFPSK
Nature of the test: co-IP; endogenous proteins; anti-SH3RF2 or anti-RBPMS immobilised on AminoLink plus coupling resin (Pierce Co-Immunoprecipitation Kit), total lysates of DDP-resistant A2780 and SKOV3 cells (also parental SKOV3) added; eluates blotted with anti-RBPMS and anti-SH3RF2.

These are yes or no findings as the source states them, for the method shown. In cells and extracts the contact can be indirect. Some entries that bind do so weakly or less than the wild type.

In the case of “RNA binding protein, mRNA processing factor (RBPMS) (from UniProt Q93062 1-196)”, the binding entry is “binds”.
